The supplement of paper PMC10735217
Where a name gives a salt, the structure may show the parent alone. The list shows a part of the results. Repeats in this data set agree poorly, so a single value says little.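 In a drug-repurposing library screen, luminescence reads luciferase driven by eight TEAD-binding elements, stably integrated into human kidney-derived cells. Compounds scoring over five robust Z scores above the plate mean are called hits.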

Test system: HEK293A TEAD-LUC reporter
Test: TEAD-luciferase reporter activity (YAP activation), robust Z score vs plate; higher = stronger YAP/TEAD activation
Details: 24 h

In the case of `N=C(N)NCCC[C@H](NC(=O)[C@@H]1CSSC[C@H](NC(=O)[C@H](Cc2ccc3ccccc3c2)NC(=O)[C@H](CCCNC(=N)N)NC(=O)[C@H](CCCNC(=N)N)NC(=O)c2ccc(F)cc2)C(=O)N[C@@H](Cc2ccc(O)cc2)C(=O)N[C@@H](CCCNC(N)=O)C(=O)N[C@@H](CCCCN)C(=O)N[C@@H](CCCCN)C(=O)N2CCC[C@H]2C(=O)N[C@@H](Cc2ccc(O)cc2)C(=O)N[C@@H](CCCNC(=N)N)C(=O)N[C@@H](CCCNC(N)=O)C(=O)N1)C(N)=O`, the TEAD-luciferase reporter activity (compound concentration: 200 nM) is reported as inactive: -0.516, the TEAD-luciferase reporter activity (compound concentration: 2 uM) is reported as inactive: 1.55 and the TEAD-luciferase reporter activity (compound concentration: 10 uM) is reported as inactive: 0.325.

`CCCCC1C(=O)NN(c2ccccc2)C1=O` (centres undefined) was tested, and the TEAD-luciferase reporter activity (compound concentration: 200 nM) was inactive: -1.14, the TEAD-luciferase reporter activity (compound concentration: 2 uM) was inactive: -1.27 and the TEAD-luciferase reporter activity (compound concentration: 10 uM) was inactive: 1.61.

In the case of `CCCC1(C2=NCCN2)Cc2cccc3c2N1CC3` (centres undefined), the TEAD-luciferase reporter activity (compound concentration: 200 nM) is reported as inactive: 0.0774, the TEAD-luciferase reporter activity (compound concentration: 2 uM) is reported as inactive: -1.62 and the TEAD-luciferase reporter activity (compound concentration: 10 uM) is reported as inactive: -1.67.

`CC1CC(OC(=O)C(O)c2ccccc2)CC(C)(C)N1C` (centres undefined) was tested, and the TEAD-luciferase reporter activity (compound concentration: 200 nM) was inactive: 1.58, the TEAD-luciferase reporter activity (compound concentration: 2 uM) was inactive: -0.529 and the TEAD-luciferase reporter activity (compound concentration: 10 uM) was inactive: -0.731.

For `CN(C)CCCO[C@@H]1[C@H]2OC(C)(C)O[C@H]2O[C@@H]1[C@H](O)CO` [Amiprilose], the TEAD-luciferase reporter activity (compound concentration: 200 nM) was inactive: -0.887, the TEAD-luciferase reporter activity (compound concentration: 2 uM) was inactive: -0.599 and the TEAD-luciferase reporter activity (compound concentration: 10 uM) was inactive: -1.81.

With `CCC[C@@H]1O[C@@H]2C[C@H]3[C@@H]4C[C@H](F)C5=CC(=O)CC[C@]5(C)[C@@]4(F)[C@@H](O)C[C@]3(C)[C@]2(C(=O)S[C@@H]2CCOC2=O)O1` the TEAD-luciferase reporter activity (compound concentration: 200 nM) was inactive: -1.03, the TEAD-luciferase reporter activity (compound concentration: 2 uM) was inactive: -0.055 and the TEAD-luciferase reporter activity (compound concentration: 10 uM) was inactive: 3.2.

`Cc1scc2c1N(C(=O)CN1CCN(C)CC1)c1ccccc1NC2=O` [Telenzepine hydrochloride] was tested, and the TEAD-luciferase reporter activity (compound concentration: 200 nM) was inactive: -1.45, the TEAD-luciferase reporter activity (compound concentration: 2 uM) was inactive: -0.713 and the TEAD-luciferase reporter activity (compound concentration: 10 uM) was inactive: 0.769.

With `CN[C@@H](C)C(=O)N[C@H](C(=O)N1CCC[C@H]1C(=O)Nc1sc(-c2ncco2)nc1-c1ccccc1)C1CCCCC1` the TEAD-luciferase reporter activity (compound concentration: 200 nM) was inactive: 0.864, the TEAD-luciferase reporter activity (compound concentration: 2 uM) was active: 6.2 and the TEAD-luciferase reporter activity (compound concentration: 10 uM) was inactive: -0.62.

For `CCCN1CC[C@H]2c3c(cccc3C(N)=O)CC[C@H]21`, the TEAD-luciferase reporter activity (compound concentration: 200 nM) was inactive: 0.495, the TEAD-luciferase reporter activity (compound concentration: 2 uM) was inactive: -1.14 and the TEAD-luciferase reporter activity (compound concentration: 10 uM) was inactive: -1.68.

With `O=C(CCc1ccc(O)cc1)c1c(O)cc(O)cc1O` [Phloretin] the TEAD-luciferase reporter activity (compound concentration: 200 nM) was inactive: -0.724, the TEAD-luciferase reporter activity (compound concentration: 2 uM) was inactive: -2.55 and the TEAD-luciferase reporter activity (compound concentration: 10 uM) was inactive: -1.99.

For `CCOC(=O)C(=Cc1ncc([N+](=O)[O-])n1C)C(C)=O` [Propenidazole], the TEAD-luciferase reporter activity (compound concentration: 200 nM) was inactive: -1.74, the TEAD-luciferase reporter activity (compound concentration: 2 uM) was inactive: -1.4 and the TEAD-luciferase reporter activity (compound concentration: 10 uM) was inactive: -0.524.

With `Cc1ccc(Cl)c(Nc2ccccc2C(=O)O)c1Cl` [Meclofenamate sodium] the TEAD-luciferase reporter activity (compound concentration: 200 nM) was inactive: -1.78 and the TEAD-luciferase reporter activity (compound concentration: 10 uM) was inactive: 2.91.

For `Cc1ccc(Cl)c(Nc2ccccc2C(=O)O)c1Cl` [meclofenamate sodium], the TEAD-luciferase reporter activity (compound concentration: 2 uM) was inactive: -0.831.

For `COc1cc(/C=C/C(=O)O[C@H]2CC[C@]34CC35CC[C@]3(C)[C@@H]([C@H](C)CCC=C(C)C)CC[C@@]3(C)C5CCC4C2(C)C)ccc1O` (some centres undefined), the TEAD-luciferase reporter activity (compound concentration: 200 nM) was inactive: 0.541, the TEAD-luciferase reporter activity (compound concentration: 2 uM) was inactive: 2.19 and the TEAD-luciferase reporter activity (compound concentration: 10 uM) was inactive: 0.0531.

With `C[C@@H]1OC(=O)N[C@@H]1C(=O)N[C@@H](Cc1cscn1)C(=O)N1CCC[C@H]1C` [Rovatirelin] the TEAD-luciferase reporter activity (compound concentration: 200 nM) was inactive: -0.761, the TEAD-luciferase reporter activity (compound concentration: 2 uM) was inactive: -0.688 and the TEAD-luciferase reporter activity (compound concentration: 10 uM) was inactive: 0.109.

`CCCNC(C)C(=O)Nc1c(C)csc1C(=O)OC` (centres undefined) [Articaine hydrochloride] was tested, and the TEAD-luciferase reporter activity (compound concentration: 200 nM) was inactive: -1.54, the TEAD-luciferase reporter activity (compound concentration: 2 uM) was inactive: 1.24 and the TEAD-luciferase reporter activity (compound concentration: 10 uM) was inactive: 0.628.

`C[C@@H]1C[C@H]2[C@@H]3CCC4=CC(=O)C=C[C@]4(C)[C@@]3(Cl)[C@@H](O)C[C@]2(C)[C@@]1(O)C(=O)CO` [beclometasone, Alza] was tested, and the TEAD-luciferase reporter activity (compound concentration: 200 nM) was inactive: 0.133, the TEAD-luciferase reporter activity (compound concentration: 2 uM) was inactive: 0.167 and the TEAD-luciferase reporter activity (compound concentration: 10 uM) was inactive: -0.165.

For `Cc1ncc(CO)c(CO)c1O` [Pyridoxine], the TEAD-luciferase reporter activity (compound concentration: 200 nM) was inactive: -0.957, the TEAD-luciferase reporter activity (compound concentration: 2 uM) was inactive: -1.3 and the TEAD-luciferase reporter activity (compound concentration: 10 uM) was inactive: 2.81.

In the case of `COc1ccc2c(c1)C(/C=C/C(C)=C/C(=O)O)=CC(C)(C)CO2`, the TEAD-luciferase reporter activity (compound concentration: 200 nM) is reported as inactive: -1.22, the TEAD-luciferase reporter activity (compound concentration: 2 uM) is reported as inactive: 0.0481 and the TEAD-luciferase reporter activity (compound concentration: 10 uM) is reported as inactive: -0.057.

With `Cc1cc(C(=O)Nc2cc(Nc3ccc4c(/C=C/c5ccccn5)n[nH]c4c3)ccc2F)n(C)n1` the TEAD-luciferase reporter activity (compound concentration: 200 nM) was inactive: -0.502, the TEAD-luciferase reporter activity (compound concentration: 2 uM) was inactive: -1.33 and the TEAD-luciferase reporter activity (compound concentration: 10 uM) was inactive: 1.35.

In the case of `CC(C)OCCn1c(=S)[nH]c(=O)c2[nH]ccc21`, the TEAD-luciferase reporter activity (compound concentration: 200 nM) is reported as inactive: -1.11, the TEAD-luciferase reporter activity (compound concentration: 2 uM) is reported as inactive: 0.965 and the TEAD-luciferase reporter activity (compound concentration: 10 uM) is reported as inactive: 0.417.

In the case of `CCn1ncnc1COc1nn2c(-c3ccccc3F)nnc2cc1C(C)(C)C`, the TEAD-luciferase reporter activity (compound concentration: 200 nM) is reported as inactive: 0.0269, the TEAD-luciferase reporter activity (compound concentration: 2 uM) is reported as inactive: 0.264 and the TEAD-luciferase reporter activity (compound concentration: 10 uM) is reported as inactive: -0.78.

In the case of `CC1CN(c2cc3c(cc2F)c(=O)c(C(=O)O)cn3C(C)(C)C)CCN1` (centres undefined), the TEAD-luciferase reporter activity (compound concentration: 200 nM) is reported as inactive: 1.78, the TEAD-luciferase reporter activity (compound concentration: 2 uM) is reported as inactive: 0.188 and the TEAD-luciferase reporter activity (compound concentration: 10 uM) is reported as inactive: -1.92.

With `COCCCNC(=O)c1c[nH]c2ncccc12` the TEAD-luciferase reporter activity (compound concentration: 200 nM) was active: 5.75 and the TEAD-luciferase reporter activity (compound concentration: 10 uM) was inactive: 0.739.

`CC1(C)CN(CC(=O)N2CCCC2)[C@H](C(=O)Nc2cc(Cl)cc3c2[nH]c2cnccc23)CO1` was tested, and the TEAD-luciferase reporter activity (compound concentration: 200 nM) was inactive: -1.16, the TEAD-luciferase reporter activity (compound concentration: 2 uM) was inactive: -0.0157 and the TEAD-luciferase reporter activity (compound concentration: 10 uM) was inactive: 1.54.

With `CC1(CS(=O)(=O)N2CCC(c3ccc(F)cc3)CC2)NC(=O)NC1=O` (centres undefined) the TEAD-luciferase reporter activity (compound concentration: 200 nM) was inactive: 0.932, the TEAD-luciferase reporter activity (compound concentration: 2 uM) was inactive: -0.627 and the TEAD-luciferase reporter activity (compound concentration: 10 uM) was inactive: -0.148.

`CCCC(=O)NCc1ccc(C(F)(F)F)cc1` was tested, and the TEAD-luciferase reporter activity (compound concentration: 200 nM) was inactive: 1.1, the TEAD-luciferase reporter activity (compound concentration: 2 uM) was inactive: 1.3 and the TEAD-luciferase reporter activity (compound concentration: 10 uM) was inactive: -0.251.

In the case of `Cc1cc(Nc2ncc(Cl)c(Nc3ccccc3S(=O)(=O)C(C)C)n2)c(OC(C)C)cc1C1CCNCC1` [Ceritinib], the TEAD-luciferase reporter activity (compound concentration: 200 nM) is reported as inactive: -1.37, the TEAD-luciferase reporter activity (compound concentration: 2 uM) is reported as inactive: 0.318 and the TEAD-luciferase reporter activity (compound concentration: 10 uM) is reported as inactive: -0.686.

In the case of `C[C@@]1(O)[C@H](O)[C@@H](CO)O[C@H]1n1ccc(N)nc1=O`, the TEAD-luciferase reporter activity (compound concentration: 200 nM) is reported as inactive: 0.612, the TEAD-luciferase reporter activity (compound concentration: 2 uM) is reported as inactive: -0.758 and the TEAD-luciferase reporter activity (compound concentration: 10 uM) is reported as inactive: 0.402.

In the case of `O=c1ncn2nc(Sc3ccc(F)cc3F)ccc2c1-c1c(Cl)cccc1Cl`, the TEAD-luciferase reporter activity (compound concentration: 200 nM) is reported as inactive: 0.165, the TEAD-luciferase reporter activity (compound concentration: 2 uM) is reported as inactive: -1.85 and the TEAD-luciferase reporter activity (compound concentration: 10 uM) is reported as inactive: -1.08.

With `[O]=[Mn](=[O])(=[O])[O-]` the TEAD-luciferase reporter activity (compound concentration: 200 nM) was inactive: -1.59 and the TEAD-luciferase reporter activity (compound concentration: 10 uM) was inactive: 1.11.

In the case of `CCOC(=O)/C=C1\CC(C)(CC)CC(=O)N1Cc1ccc(-c2ccccc2-c2nn[nH]n2)cc1` (centres undefined), the TEAD-luciferase reporter activity (compound concentration: 200 nM) is reported as inactive: -1.08, the TEAD-luciferase reporter activity (compound concentration: 2 uM) is reported as inactive: 0.577 and the TEAD-luciferase reporter activity (compound concentration: 10 uM) is reported as inactive: 0.378.

In the case of `O=C(c1ccc(O)c(Cl)c1)N1CCOc2ccccc21`, the TEAD-luciferase reporter activity (compound concentration: 200 nM) is reported as inactive: -2.45, the TEAD-luciferase reporter activity (compound concentration: 2 uM) is reported as inactive: -0.423 and the TEAD-luciferase reporter activity (compound concentration: 10 uM) is reported as inactive: -0.9.
